Measurements as given in the supplement of paper PMC12823440, “Inhibitors supercharge kinase turnover through native proteolytic circuits” (Nature, 2025).
Counter-ions that a name gives are not always drawn. The list shows a part of the results. The calls rarely recur for the same compound in another form.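 Kinases were expressed as nanoluciferase fusions in K562 cells and luminescence was read every 4 h between 2 and 18 h as percent of control, DMSO set to 100% and a positive control to 0%. A time point counts as decreased when the signal drops significantly (2 sigma). The hit call is the authors' own, does not follow from the count of time points alone, and its rule is not shown.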

The chains behind the UniProt entries cited, without tags or fusion partners.
UniProt Q16288, whole entry, looked up: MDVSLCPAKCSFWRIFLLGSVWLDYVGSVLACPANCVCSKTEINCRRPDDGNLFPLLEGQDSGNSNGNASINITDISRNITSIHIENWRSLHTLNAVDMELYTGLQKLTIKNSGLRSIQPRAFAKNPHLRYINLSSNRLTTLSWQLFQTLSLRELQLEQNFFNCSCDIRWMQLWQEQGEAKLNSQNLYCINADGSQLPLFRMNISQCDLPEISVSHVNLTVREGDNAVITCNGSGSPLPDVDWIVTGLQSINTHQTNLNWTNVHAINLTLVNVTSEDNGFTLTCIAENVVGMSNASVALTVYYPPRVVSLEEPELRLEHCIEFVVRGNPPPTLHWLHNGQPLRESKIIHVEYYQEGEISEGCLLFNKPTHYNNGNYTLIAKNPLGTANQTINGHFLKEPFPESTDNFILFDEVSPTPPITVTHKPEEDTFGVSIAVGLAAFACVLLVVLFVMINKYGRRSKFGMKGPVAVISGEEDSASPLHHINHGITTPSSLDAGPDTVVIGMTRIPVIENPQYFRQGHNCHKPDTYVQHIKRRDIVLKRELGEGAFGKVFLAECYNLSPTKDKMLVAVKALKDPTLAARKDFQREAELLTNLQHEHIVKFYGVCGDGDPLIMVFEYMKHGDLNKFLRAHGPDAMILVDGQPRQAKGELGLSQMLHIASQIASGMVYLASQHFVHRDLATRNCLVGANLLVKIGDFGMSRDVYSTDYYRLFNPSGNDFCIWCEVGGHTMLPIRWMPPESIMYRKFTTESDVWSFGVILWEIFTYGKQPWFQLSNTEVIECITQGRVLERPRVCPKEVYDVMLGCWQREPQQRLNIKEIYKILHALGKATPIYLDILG

Target: NTRK3 (UniProt Q16288)
Assay: kinase-Nluc reporter destabilization hit call (1 = scored as downregulated) (binary); higher = compound decreases kinase abundance
Conditions: K562; 2-18 h

kinase-Nluc reporter destabilization hit call, inactive:
CN(C)c1nc2c(Br)c(Br)c(Br)c(Br)c2n1CC(=O)O (10 µM) 0
COc1cc(N2CCC(N(C)C)CC2)ccc1Nc1ncc(Cl)c(Nc2ccccc2P(C)(C)=O)n1 (2.5 µM) 0
CC(C)C[C@H](NC(=O)[C@H](CCCCN)NC(=O)[C@H](CO)NC(=O)[C@@H](N)CC(C)C)C(N)=O [LSKL, Inhibitor of Thrombospondin (TSP-1) (TFA)] (10 µM) 0
O=C(Nc1ccc(Cl)c(Cl)c1)Nc1ccc2nnsc2c1 (10 µM) 0
CC(C)Oc1ccc(-c2cnc3c(-c4ccnc5ccccc45)cnn3c2)cc1 (10 µM) 0
O=C(CCCCCn1cc(Nc2ncc(Cl)c(Nc3ccc(Cl)cc3)n2)cn1)NO (2.5 µM) 0
CC(=O)NCCc1c[nH]c2ccc(O)cc12 [N-Acetyl-5-hydroxytryptamine] (10 µM) 0
O=C(c1ccc(Nc2nccc(-c3cc4ccccc4s3)n2)cc1)N1CCC(N2CCCC2)CC1 (2.5 µM) 0
C=CC(=O)N1CCC[C@@H](n2nc(C(=O)Nc3ccc(CC(=O)N(C)C)c(C)c3C)c3c(N)ncnc32)C1 (10 µM) 0
CC(CCc1ccccn1)(CCc1ccccn1)C(=O)c1ccccc1 (10 µM) 0
CC[C@@H]1[C@H](F)C(=O)N[C@@H]1COc1nccc2cc(C(N)=O)c(OC)cc12 (10 µM) 0
Nc1cc(C(F)F)c(-c2nc(N3C4CCC3COC4)nc(N3C4CCC3COC4)n2)cn1 (2.5 µM) 0
Oc1ccccc1C(=S)N1CCCC1 (10 µM) 0
COc1ccc(-n2c(C)c([N+](=O)[O-])c3ccc(O)cc32)cc1 (10 µM) 0
CN(C)Cc1cccc(N=C(c2ccccc2)c2c(O)[nH]c3cc(C(N)=O)ccc23)c1 (10 µM) 0
CCCCNC(=N)NC(=N)N [Buformin (hydrochloride)] (2.5 µM) 0
O=c1ccoc2cc(O)ccc12 [7-Hydroxy-4H-chromen-4-one] (10 µM) 0
C=CC(=O)Nc1cccc(-n2c(=O)cc(C)c3cnc(Nc4ccc(OCCN(C)C)cc4OC)nc32)c1 (10 µM) 0
O=c1[nH]ccc2cc(OC3CCNCC3)ccc12 (10 µM) 0
CCCCOc1ccc(CC/C=C2\SC(=O)N(CCN)C2=O)cc1 [K145 (hydrochloride)] (2.5 µM) 0
CC(C)(O)[C@@H]1CC[C@](C)([C@H]2[C@@H](O)C[C@@]3(C)[C@@H]4C[C@H](O[C@@H]5O[C@H](CO)[C@@H](O)[C@H](O)[C@H]5O)[C@H]5C(C)(C)[C@@H](O[C@@H]6OC[C@@H](O)[C@H](O)[C@H]6O[C@@H]6O[C@H](CO)[C@@H](O)[C@H](O)[C@H]6O)CC[C@@]56C[C@@]46CC[C@]23C)O1 [Astragaloside VI] (10 µM) 0
O=C1NC(=O)C(c2cn(-c3ccccc3)nc2-c2ccc(F)cc2)N1 (centres undefined) (10 µM) 0
C[C@@H]1COCCN1c1cc(C2([S@](C)(=N)=O)CC2)nc(-c2cc[nH]c3nccc2-3)n1 [Ceralasertib] (2.5 µM) 0
CN(C)Cc1cccc(N=C(c2ccccc2)c2c(O)[nH]c3cc(C(=O)N(C)C)ccc23)c1 (10 µM) 0
CN1CCN(CCCNc2ncc(Cl)c(-c3cc4c(C(=O)NC5CC5)cccc4s3)n2)CC1 (10 µM) 0
CC[C@H](Nc1ncnc2[nH]cnc12)c1oc2ccccc2c(=O)c1-c1cccc(F)c1 [Tenalisib] (10 µM) 0
O=C1NC(=O)C(c2cnc3ccccn23)=C1c1cn2c3c(cc(F)cc13)CN(C(=O)N1CCCCC1)CC2 (2.5 µM) 0
COc1c(C)c(C(=O)c2ccc(N)c(C(=O)O)c2)n2ccccc12 (10 µM) 0
N#Cc1ccc(-c2c(-c3ncn[nH]3)sc(N3CCOCC3)c2C#N)c(F)c1 (10 µM) 0
N#C/C(=C(/N)Sc1ccc(N)cc1)c1ccccc1C(F)(F)F (10 µM) 0
O=C(Nc1ccc(Cl)cc1)C1CCCN(C(=O)c2cccc(-c3ccco3)c2)C1 (centres undefined) (2.5 µM) 0
CC(=O)Nc1nc(C)c(-c2nc(N3CCCC(O)C3)no2)s1 (centres undefined) (10 µM) 0
CCc1ccc(C(=O)COc2ccc(CC3SC(=O)NC3=O)cc2)nc1 (centres undefined) (10 µM) 0
NC(=O)c1ccc(-c2cnn3ccc(NCc4cccnc4)nc23)cc1 (2.5 µM) 0
Nc1[nH]c(=O)nc2c1ncn2[C@@H]1O[C@H](CO)[C@@H](O)[C@H]1O [Crotonoside] (10 µM) 0
CC1(COc2ccc3c(c2)ncn3-c2ccc3cccc(N4CCC(N)CC4)c3n2)COC1 [Crenolanib] (2.5 µM) 0
CSc1ccc(CN2CCCC(Nc3ccc4[nH]ncc4c3)C2)cc1 (centres undefined) [Rho-Kinase-IN-1] (10 µM) 0
N=C(N)NC(=N)NCCc1ccccc1 [Phenformin (hydrochloride)] (10 µM) 0
C=C(F)C(=O)N1CCN(c2nc(OC[C@@H]3CCCN3C)nc3c2CCN(c2cccc4cccc(Cl)c24)C3)C[C@@H]1CC#N (2.5 µM) 0

3 successive records from above:
kinase-Nluc reporter destabilization hit call, inactive:
CC(C)Oc1ccc(-c2cnc3c(-c4ccnc5ccccc45)cnn3c2)cc1 (10 µM) 0
O=C(CCCCCn1cc(Nc2ncc(Cl)c(Nc3ccc(Cl)cc3)n2)cn1)NO (2.5 µM) 0
CC(=O)NCCc1c[nH]c2ccc(O)cc12 [N-Acetyl-5-hydroxytryptamine] (10 µM) 0
